Measurements reported in PubChem BioAssay AID686938 (Drosophila RNAi Screening Center, 2013).

Screen: 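Fly genes required for calcium entry once internal stores are emptied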 (primary screen)
System: Drosophila S2R+ cells
Reagent: long dsRNA against Drosophila genes, about 0.25 µg dsRNA per well, roughly 10,000 cells
Duration: 5 days of knock-down before the calcium assay
Challenge: thapsigargin (SERCA pump blocker) to empty calcium stores; entry signal taken 4 min after adding it
Measured: 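Per-well fluo-4 fluorescence in two replicates, unnormalised, measured in resting cells and 4 min after store depletion by the SERCA blocker thapsigargin; ratio of the two present in few wells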
Direction: calcium entry signal: higher = stronger calcium signal after store depletion; resting calcium signal: higher = higher resting calcium signal
Hit rule: 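Hit if the duplicate-averaged plate z-score for entry over resting signal is under −3; wells with weak total dye signal (Fmax z < −2) or more than 5 off-targets removed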
Calls: active = strongly reduced calcium entry; inactive = no strong reduction
The screen tested about 23,000 reagents; below is a random part of those with a known target gene and a result. Over the whole deposit, 75 (0.33%) were called active. 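Raw plate signals without normalisation; calls rest on plate z-scores that were not deposited; ratio present for only 364 wells.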 Entries without a mark were called inactive. Not stated in the record: the dose of the treatment.

With knock-down of Xe7 [DRSC12307] the results were calcium entry signal, replicate 1 (fluorescence units) = 5.08e7; calcium entry signal, replicate 2 (fluorescence units) = 4.69e7; resting calcium signal, replicate 1 (fluorescence units) = 2.20e7; resting calcium signal, replicate 2 (fluorescence units) = 2.14e7.
For CG14760 [DRSC06495] the deposit lists calcium entry signal, replicate 1 (fluorescence units) = 3.44e7; calcium entry signal, replicate 2 (fluorescence units) = 3.81e7; resting calcium signal, replicate 1 (fluorescence units) = 1.54e7; resting calcium signal, replicate 2 (fluorescence units) = 1.64e7.
Against CG7054 [DRSC16185] the deposit lists calcium entry signal, replicate 1 (fluorescence units) = 5.37e7; calcium entry signal, replicate 2 (fluorescence units) = 3.01e7; resting calcium signal, replicate 1 (fluorescence units) = 2.47e7; resting calcium signal, replicate 2 (fluorescence units) = 1.50e7.
Against CG2444 [DRSC19846] the deposit lists calcium entry signal, replicate 1 (fluorescence units) = 3.70e7; calcium entry signal, replicate 2 (fluorescence units) = 4.08e7; resting calcium signal, replicate 1 (fluorescence units) = 1.95e7; resting calcium signal, replicate 2 (fluorescence units) = 1.89e7.
Depletion of CG32563 [DRSC19934] resulted in: calcium entry signal, replicate 1 (fluorescence units) = 3.98e7; calcium entry signal, replicate 2 (fluorescence units) = 2.97e7; resting calcium signal, replicate 1 (fluorescence units) = 2.10e7; resting calcium signal, replicate 2 (fluorescence units) = 1.36e7.
With knock-down of polyph (polyphemus) [DRSC06254], the record shows calcium entry signal, replicate 1 (fluorescence units) = 3.88e7; calcium entry signal, replicate 2 (fluorescence units) = 4.18e7; resting calcium signal, replicate 1 (fluorescence units) = 1.96e7; resting calcium signal, replicate 2 (fluorescence units) = 1.55e7.
Gr28b (Gustatory receptor 28b) [DRSC02291] gave calcium entry signal, replicate 1 (fluorescence units) = 3.77e7; calcium entry signal, replicate 2 (fluorescence units) = 3.78e7; resting calcium signal, replicate 1 (fluorescence units) = 1.84e7; resting calcium signal, replicate 2 (fluorescence units) = 1.77e7.
Gr28b (Gustatory receptor 28b) [DRSC02292] gave calcium entry signal, replicate 1 (fluorescence units) = 3.85e7; calcium entry signal, replicate 2 (fluorescence units) = 3.83e7; resting calcium signal, replicate 1 (fluorescence units) = 1.92e7; resting calcium signal, replicate 2 (fluorescence units) = 1.71e7.
Against CG1979 [DRSC12495], the values are calcium entry signal, replicate 1 (fluorescence units) = 3.45e7; calcium entry signal, replicate 2 (fluorescence units) = 4.93e7; resting calcium signal, replicate 1 (fluorescence units) = 1.64e7; resting calcium signal, replicate 2 (fluorescence units) = 2.04e7.
For CG43376 [DRSC02537], the values are calcium entry signal, replicate 1 (fluorescence units) = 4.58e7; calcium entry signal, replicate 2 (fluorescence units) = 2.76e7; resting calcium signal, replicate 1 (fluorescence units) = 2.03e7; resting calcium signal, replicate 2 (fluorescence units) = 1.43e7.
Arr1 (Arrestin 1) [DRSC01867] showed calcium entry signal, replicate 1 (fluorescence units) = 5.03e7; calcium entry signal, replicate 2 (fluorescence units) = 3.50e7; resting calcium signal, replicate 1 (fluorescence units) = 2.05e7; resting calcium signal, replicate 2 (fluorescence units) = 1.50e7.

Targets listed so far whose gene name starts with G or g (2):
Gr28b (Gustatory receptor 28b) [DRSC02291] | calcium entry signal, replicate 1 (fluorescence units) = 3.77e7; calcium entry signal, replicate 2 (fluorescence units) = 3.78e7; resting calcium signal, replicate 1 (fluorescence units) = 1.84e7; resting calcium signal, replicate 2 (fluorescence units) = 1.77e7
Gr28b (Gustatory receptor 28b) [DRSC02292] | calcium entry signal, replicate 1 (fluorescence units) = 3.85e7; calcium entry signal, replicate 2 (fluorescence units) = 3.83e7; resting calcium signal, replicate 1 (fluorescence units) = 1.92e7; resting calcium signal, replicate 2 (fluorescence units) = 1.71e7

Additional records:
CG17477 [DRSC15239] gave calcium entry signal, replicate 1 (fluorescence units) = 3.68e7; calcium entry signal, replicate 2 (fluorescence units) = 4.10e7; resting calcium signal, replicate 1 (fluorescence units) = 1.70e7; resting calcium signal, replicate 2 (fluorescence units) = 6.20e7.
With knock-down of SMC5 (Structural maintenance of chromosomes 5) [DRSC11849], the screen gave calcium entry signal, replicate 1 (fluorescence units) = 2.54e7; calcium entry signal, replicate 2 (fluorescence units) = 3.78e7; resting calcium signal, replicate 1 (fluorescence units) = 1.13e7; resting calcium signal, replicate 2 (fluorescence units) = 2.50e7.
After knock-down of Gr22f (Gustatory receptor 22f) [DRSC00076], the record shows calcium entry signal, replicate 1 (fluorescence units) = 4.18e7; calcium entry signal, replicate 2 (fluorescence units) = 4.07e7; resting calcium signal, replicate 1 (fluorescence units) = 2.27e7; resting calcium signal, replicate 2 (fluorescence units) = 1.76e7.
Depletion of SPE (Spatzle-Processing Enzyme) [DRSC15135] came out at: calcium entry signal, replicate 1 (fluorescence units) = 4.54e7; calcium entry signal, replicate 2 (fluorescence units) = 4.11e7; resting calcium signal, replicate 1 (fluorescence units) = 2.06e7; resting calcium signal, replicate 2 (fluorescence units) = 1.91e7.
CG33060 [DRSC09939] scored calcium entry signal, replicate 1 (fluorescence units) = 4.91e7; calcium entry signal, replicate 2 (fluorescence units) = 6.72e7; resting calcium signal, replicate 1 (fluorescence units) = 2.19e7; resting calcium signal, replicate 2 (fluorescence units) = 3.02e7.
Depletion of mRpL15 (mitochondrial ribosomal protein L15) [DRSC11771] came out at: calcium entry signal, replicate 1 (fluorescence units) = 4.14e7; calcium entry signal, replicate 2 (fluorescence units) = 5.26e7; resting calcium signal, replicate 1 (fluorescence units) = 1.82e7; resting calcium signal, replicate 2 (fluorescence units) = 3.30e7.
With knock-down of CG6610 [DRSC10674] the results were calcium entry signal, replicate 1 (fluorescence units) = 2.28e7; calcium entry signal, replicate 2 (fluorescence units) = 4.17e7; resting calcium signal, replicate 1 (fluorescence units) = 1.11e7; resting calcium signal, replicate 2 (fluorescence units) = 1.69e7.
Depletion of Pask (PAS kinase) [DRSC04337] gave: calcium entry signal, replicate 1 (fluorescence units) = 3.97e7; resting calcium signal, replicate 1 (fluorescence units) = 1.88e7.
RabX1 [DRSC04678] gave calcium entry signal, replicate 1 (fluorescence units) = 3.74e7; calcium entry signal, replicate 2 (fluorescence units) = 4.31e7; resting calcium signal, replicate 1 (fluorescence units) = 2.00e7; resting calcium signal, replicate 2 (fluorescence units) = 2.23e7.
CG32473 [DRSC14352] scored calcium entry signal, replicate 1 (fluorescence units) = 2.90e7; calcium entry signal, replicate 2 (fluorescence units) = 5.21e7; resting calcium signal, replicate 1 (fluorescence units) = 1.49e7; resting calcium signal, replicate 2 (fluorescence units) = 7.00e7.
After knock-down of CG32473 [DRSC16446], the record shows calcium entry signal, replicate 1 (fluorescence units) = 4.45e7; calcium entry signal, replicate 2 (fluorescence units) = 4.80e7; resting calcium signal, replicate 1 (fluorescence units) = 1.70e7; resting calcium signal, replicate 2 (fluorescence units) = 2.09e7.
